In this assay the target is endogenous gC1qR/p32 of tumor cells and tissues (extracts of MDA-MB-435 cells, BT549 cells, MDA-MB-435 tumor xenografts; blots and sections) (human) (UniProt Q07021). In words: pull-down with biotinylated peptide from MDA-MB-435 cell and xenograft extracts; silver stain, mass spectrometry, immunoblot.

The chains behind the UniProt entries cited, without tags or fusion partners. Residues count along the entry.
UniProt Q07021, residues 74-282: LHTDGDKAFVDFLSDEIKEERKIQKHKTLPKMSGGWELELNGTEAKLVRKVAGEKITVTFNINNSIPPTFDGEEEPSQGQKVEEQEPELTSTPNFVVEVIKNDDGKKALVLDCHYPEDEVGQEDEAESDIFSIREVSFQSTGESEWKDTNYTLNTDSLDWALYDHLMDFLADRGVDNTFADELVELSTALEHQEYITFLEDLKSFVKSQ

These are yes or no findings as the source states them, for the method shown. In cells and extracts the contact can be indirect. These calls come from enrichment with a bait or labelling near it, and not all partners need be listed.

B1: biotinylated LyP-1 peptide (…) (peptide)
peptide: CGNKRTRGC
modifications: biotinylated (site not told); described as a cyclic nonapeptide
As for B1, the binding result is listed as “binds”.

The values are drawn from patent publication US20080014143A1 (SANFORD BURNHAM MEDICAL RESEARCH INSTITUTE, published 2008).
